Results taken from PubChem BioAssay AID330 (DTP/NCI, 2004).
The list shows only some results of the screen, not a fair sample: it gathers tests that were run many times, whatever their T/C, doses with no T/C, and many T/C values between a quarter and a half above the control. Further doses and runs are listed elsewhere. T/C gives the treated animals as a percentage of the vehicle group. Some entries give survivors of the animals treated and no T/C: the source files T/C as zero there, which appears to mark a toxic dose or a test without result, not a measured value. Some survivor counts are full or nearly so, which does not show that the dose was tolerated: the source hardly ever lists a survival T/C far under the control, and the zero likely stands for such cases as well. Survivors were counted at the toxicity check, usually on the fifth day, unless a day is given; later deaths do not show. Schedules are NCI's codes, read here as Q, the interval in days (D) or hours (H), X, the number of doses. Marks such as (2×) give the number of equal values in this list. Some entries hold several experiments; their values stand side by side, smallest first. For survival time, the PubChem record calls one and a half times the control and up active, and a quarter to a half above the control has no call in these data; cut-offs in other NCI protocols can differ. Some T/C values are followed by the survivors on the day toxicity was checked, most often the fifth; without a count, all were alive then.

Tested on: P388 leukemia ip, CD2F1 mice, survival T/C
Experiment: NCI In Vivo Anticancer Drug Screen. Data for tumor model P388 Leukemia (intraperitoneal) in CD2F1 (CDF1) mice
Conditions: T/C endpoint: median survival time, higher T/C = longer survival
[1] = dose: 200.0 mg/kg/injection, schedule: Q01DX009 (ip), vehicle: Klucel (hydroxypropylcellulose) (HPC)
[2] = dose: 100.0 mg/kg/injection, schedule: Q01DX005 (ip), vehicle: Klucel (hydroxypropylcellulose) (HPC)
[3] = dose: 200.0 mg/kg/injection, schedule: Q01DX005 (ip), vehicle: Klucel (hydroxypropylcellulose) (HPC)
[4] = dose: 200.0 mg/kg/injection, schedule: Q01DX005 (ip), vehicle: saline
[5] = dose: 70.0 mg/kg/injection, schedule: Q01DX009 (ip), vehicle: Klucel (hydroxypropylcellulose) (HPC)
[6] = dose: 50.0 mg/kg/injection, schedule: Q01DX009 (ip), vehicle: saline

CC1=NN(c2cccc(S(=O)(=O)O)c2)C(=O)C1N=Nc1cc(Cl)cc(S(=O)(=O)O)c1O.CC1=NN(c2cccc(S(=O)(=O)O)c2)C(=O)C1N=Nc1cc(Cl)cc(S(=O)(=O)O)c1O.[Cr] (stereo not drawn)
T/C (dose: 200.0 mg/kg/injection, schedule: Q01DX009 (ip), vehicle: saline): 134 % of control

COc1cc2c(c(OC)c1OC)-c1ccc(SC)c(=O)cc1[C@@H](NC(=O)CCl)CC2
T/C (dose: 0.05 mg/kg/injection, schedule: Q01DX009 (ip), vehicle: other): 132 % of control
T/C (dose: 0.05 mg/kg/injection, schedule: Q01DX009 (ip), vehicle: water): 137 % of control
T/C (dose: 0.1 mg/kg/injection, schedule: Q01DX009 (ip), vehicle: other): 125 % of control
T/C (dose: 0.1 mg/kg/injection, schedule: Q01DX009 (ip), vehicle: water): 133 % of control
T/C (dose: 0.2 mg/kg/injection, schedule: Q01DX009 (ip), vehicle: other): 132 % of control
T/C (dose: 0.2 mg/kg/injection, schedule: Q01DX009 (ip), vehicle: water): 144 % of control
T/C (dose: 0.4 mg/kg/injection, schedule: Q01DX009 (ip), vehicle: other): 139 % of control
survivor count (dose: 0.78 mg/kg/injection, schedule: Q01DX009 (ip), vehicle: other): 2 of 6
survivor count (dose: 0.8 mg/kg/injection, schedule: Q01DX009 (ip), vehicle: other): 4 of 6
survivor count (dose: 0.8 mg/kg/injection, schedule: Q01DX009 (ip), vehicle: water): 5 of 6
survivor count (dose: 1.56 mg/kg/injection, schedule: Q01DX009 (ip), vehicle: other): 1 of 6
survivor count (dose: 3.13 mg/kg/injection, schedule: Q01DX009 (ip), vehicle: other): 0 of 6
survivor count (dose: 6.25 mg/kg/injection, schedule: Q01DX009 (ip), vehicle: other): 0 of 6
survivor count (dose: 12.5 mg/kg/injection, schedule: Q01DX009 (ip), vehicle: other): 0 of 6
survivor count (dose: 25.0 mg/kg/injection, schedule: Q01DX009 (ip), vehicle: other): 0 of 6
survivor count (dose: 50.0 mg/kg/injection, schedule: Q01DX009 (ip), vehicle: other): 0 of 6
survivor count (dose: 100.0 mg/kg/injection, schedule: Q01DX009 (ip), vehicle: other): 0 of 6
survivor count (dose: 200.0 mg/kg/injection, schedule: Q01DX009 (ip), vehicle: other): 0 of 6

CN1CCc2cc(O)c(O)cc2C1
survivor count (dose: 400.0 mg/kg/injection, schedule: Q04DX003 (ip), vehicle: saline): 2 of 6

C[N+]1(C)CCC(=O)C(c2ccccc2)C1 (stereo not drawn)
survivor count (dose: 200.0 mg/kg/injection, schedule: Q04DX003 (ip), vehicle: saline): 0 of 6

O=C(CCl)Nc1nc(=O)[nH]s1
survivor count [1]: 0 of 6

CCOP(=S)(Nc1ccc(F)cc1F)OCC
survivor count (dose: 400.0 mg/kg/injection, schedule: Q04DX002 (ip), vehicle: saline with Tween-80): 2 of 6

COc1cccc2c1OC(=O)NC2O (stereo not drawn)
survivor count (dose: 400.0 mg/kg/injection, schedule: Q01DX005 (ip), vehicle: saline with Tween-80): 2 of 5

COc1cc(NCCCCCNC(C)C(C)C)c2ncccc2c1 (stereo not drawn)
survivor count (dose: 100.0 mg/kg/injection, schedule: Q01DX005 (ip), vehicle: saline with Tween-80): 1 of 6
survivor count (dose: 200.0 mg/kg/injection, schedule: Q01DX005 (ip), vehicle: saline with Tween-80): 0 of 6

CC(CNC(Cc1ccccc1)c1ccccc1)NC(Cc1ccccc1)c1ccccc1 (stereo not drawn)
survivor count [2]: 5 of 5
survivor count [3]: 3 of 5

CS/C(=C1/C(=O)N(c2ccccc2)N=C1C)N1CC1
survivor count (dose: 100.0 mg/kg/injection, schedule: Q04DX003 (ip), vehicle: Klucel (hydroxypropylcellulose) (HPC)): 0 of 6 and 2 of 6
survivor count (dose: 200.0 mg/kg/injection, schedule: Q04DX003 (ip), vehicle: Klucel (hydroxypropylcellulose) (HPC)): 0 of 6
survivor count (dose: 400.0 mg/kg/injection, schedule: Q04DX003 (ip), vehicle: Klucel (hydroxypropylcellulose) (HPC)): 0 of 5

CC(=O)Nc1ccc(C(=O)N/N=C/c2ccccc2O)cc1
survivor count (dose: 50.0 mg/kg/injection, schedule: Q01DX005 (ip), vehicle: Klucel (hydroxypropylcellulose) (HPC)): 6 of 6
survivor count [2]: 6 of 6
survivor count [3]: 6 of 6

O=c1oc(-c2cc([N+](=O)[O-])cc([N+](=O)[O-])c2Cl)nc2ccccc12
T/C (dose: 50.0 mg/kg/injection, schedule: Q01DX009 (ip), vehicle: Klucel (hydroxypropylcellulose) (HPC)): 127 % of control
survivor count (dose: 100.0 mg/kg/injection, schedule: Q01DX009 (ip), vehicle: Klucel (hydroxypropylcellulose) (HPC)): 3 of 6
survivor count [1]: 1 of 6

O=C(Nc1cccc2c(NC(=O)N3CCCCC3)cccc12)N1CCCCC1
survivor count (dose: 60.0 mg/kg/injection, schedule: Q01DX005 (ip), vehicle: saline with Tween-80): 6 of 6 (2×)
survivor count (dose: 120.0 mg/kg/injection, schedule: Q01DX005 (ip), vehicle: saline with Tween-80): 6 of 6

CC/C(=C(\c1ccccc1)c1ccc(OCCN(C)C)cc1)c1ccccc1
survivor count (dose: 200.0 mg/kg/injection, schedule: Q01DX009 (ip), vehicle: suspension in saline): 4 of 6
survivor count (dose: 400.0 mg/kg/injection, schedule: Q01DX009 (ip), vehicle: suspension in saline): 0 of 6

CC(C)(C)N1COC2CCCC21 (stereo not drawn)
T/C (dose: 50.0 mg/kg/injection, schedule: Q01DX005 (ip), vehicle: saline, evaluated on day 20): 134 % of control
T/C (dose: 50.0 mg/kg/injection, schedule: Q01DX005 (ip), vehicle: saline, evaluated on day 30): 127 % of control
T/C (dose: 100.0 mg/kg/injection, schedule: Q01DX005 (ip), vehicle: saline, evaluated on day 20): 134 % of control
T/C (dose: 100.0 mg/kg/injection, schedule: Q01DX005 (ip), vehicle: saline, evaluated on day 30): 128 % of control
survivor count [4]: 3 of 6

COC1=C(Br)[C@H](O)[C@](O)(CC#N)C=C1Br
T/C (dose: 17.5 mg/kg/injection, schedule: Q01DX009 (ip), vehicle: Klucel (hydroxypropylcellulose) (HPC)): 127 and 128 % of control
T/C (dose: 35.0 mg/kg/injection, schedule: Q01DX009 (ip), vehicle: Klucel (hydroxypropylcellulose) (HPC)): 127 and 144 % of control
T/C [5]: 135 % of control [5 of 6 alive]
survivor count [5]: 5 of 6
survivor count (dose: 140.0 mg/kg/injection, schedule: Q01DX009 (ip), vehicle: Klucel (hydroxypropylcellulose) (HPC)): 2 of 6

CCCCCCN=C(N)N/N=C(\C)c1ccc2c(c1)Cc1cc(/C(C)=N/NC(N)=NCCCCCC)ccc1-2
survivor count (dose: 100.0 mg/kg/injection, schedule: Q04DX002 (ip), vehicle: saline with Tween-80): 1 of 6
survivor count (dose: 200.0 mg/kg/injection, schedule: Q04DX002 (ip), vehicle: saline with Tween-80): 1 of 6

NC(CSCCCSCC(N)C(=O)O)C(=O)O (stereo not drawn)
survivor count (dose: 400.0 mg/kg/injection, schedule: Q01DX001 (ip), vehicle: Klucel (hydroxypropylcellulose) (HPC)): 1 of 6

NS(=O)(=O)c1cccc(NC(=S)Nc2ccccc2)c1
survivor count (dose: 12.5 mg/kg/injection, schedule: Q01DX009 (ip), vehicle: saline): 5 of 5
T/C [6]: 89, 100, 107, 127 % of control
survivor count [6]: 4 of 6

CC1CCCC2CCCOCN12 (stereo not drawn)
survivor count [4]: 0 of 6

COC(=O)/C(C#N)=C/c1ccco1
survivor count [3]: 0 of 5

COc1ccc(CN2CCCNCC2)cc1
survivor count (dose: 200.0 mg/kg/injection, schedule: Q01DX009 (ip), vehicle: water): 2 of 5

N/C(CCSc1ccccc1N=Cc1ccccc1O)=N/O
survivor count (dose: 100.0 mg/kg/injection, schedule: Q01DX009 (ip), vehicle: olive oil, sesame oil, peanut oil): 0 of 6
survivor count (dose: 200.0 mg/kg/injection, schedule: Q01DX009 (ip), vehicle: olive oil, sesame oil, peanut oil): 0 of 6
survivor count (dose: 400.0 mg/kg/injection, schedule: Q01DX009 (ip), vehicle: olive oil, sesame oil, peanut oil): 0 of 6
